Source: PMC6072100, “Exploring the links between peptoid antibacterial activity and toxicity” (MedChemComm, 2017)
Square brackets hold non-standard residues; d marks the D form. Peptide text beside a SMILES is read from it. Gly(N-(CH2)6NH2) = NCCCCCCNCC(=O)O; Gly(N-2-aminoethyl) = NCCNCC(=O)O; Nspe = C[C@H](NCC(=O)O)c1ccccc1; Nphe = O=C(O)CNCc1ccccc1; Nlys = NCCCCNCC(=O)O

Tested on: Escherichia coli K-12 wild-type strain (W3110/ATCC27325)
Format: cell-based
Settings: for Selectivity Index HaCaT, E. coli: ED50 HaCaT / MIC E. coli; for Selectivity Index HepG2, E. coli: ED50 HepG2 / MIC E. coli; for Average selectivity E. coli: average of selectivity to HaCaT and HepG2, selectivity = toxicity/activity
Protocol: (§1) Escherichia coli K-12 wild-type strain (W3110/ATCC27325, F^–, λ^–, rpoS(Am), rph-1, Inv(rrnD-rrnE)), Pseudomonas aeruginosa PA01 (ATCC 15692) Staphylococcus aureus (3R7089 strain Oxford/ATCC9144) and Staphylococcus epidermidis (laboratory strain from clinical isolate) were selected for bacteriological studies as representative Gram-negative (E. coli and P. aeruginosa) and Gram-positive (S. aureus and S. epidermidis) species. Bacterial cultures were prepared by streaking bacterial strains onto LB agar plates with an inoculation loop and incubated overnight at 37 °C. A single colony was selected and placed in 5 mL of Iso-sensitest broth (Oxoid, ThermoScientific) and incubated with shaking for 16–18 h at 37 °C to provide liquid cultures for testing.
MIC values were obtained according to the protocol described by J. M. Andrews et al.[58] and were conducted in 96-well plates (Sarstedt). Bacteria were grown from overnight cultures in Iso-sensitest broth to an A650nm of 0.07 equivalent to a 0.5 MacFarland standard (240 μM BaCl2 in 0.18 M H2SO4). This culture was diluted ten-fold with Iso-sensitest broth before use. Peptoids were initially dissolved in DMSO (5 mM) and diluted further in Iso-sensitest broth to achieve a concentration range of 4–200 μM using 2-fold serial dilutions. 50 μl of inoculum and 50 μl of peptoid solution were added to each test well (final concentration range of 2–100 μM). Experiments were performed in triplicate. A positive control for bacterial growth contained only the inoculum and Iso-sensitest broth. Other controls contained the inoculum and serial dilutions of ampicillin (from 250 μg mL^–1 to 2 μg mL^–1), serial dilutions of DMSO and the inoculum to confirm no inhibitory effect on bacterial growth, and Iso-sensitest broth alone as a sterile control. […] Quantitative data was attained from absorbance values using a Biotek Synergy H4 plate reader.
Antibacterial MIC determination
as §1, with “(W3110 / ATCC27325, F-, λ-,” for “(W3110/ATCC27325, F^–, λ^–,”, “Oxford / ATCC9144)” for “Oxford/ATCC9144)”, “°C.” for “°C. A single colony was selected and placed in 5 mL of Iso-sensitest broth (Oxoid, ThermoScientific) and incubated with shaking for 16–18 h at 37 °C to provide liquid cultures for testing.”
A single colony was selected and placed in 5 mL of Iso-sensitest broth (Oxoid, ThermoScientific) and incubated with shaking for 16-18 h at 37 °C to provide liquid […]
MIC values were obtained according to the protocol described by J. M. Andrews et al.1 and were conducted in 96-well plates (Sarstedt). Bacteria were grown from overnight cultures in Iso-sensitest broth to an A650nm of 0.07 equivalent to a 0.5 MacFarland standard (240 μM BaCl2 in 0.18 M H2SO4). This culture was diluted ten-fold with Iso-sensitest broth before use. Peptoids were initially dissolved in DMSO (5 mM) and diluted further in Iso-sensitest broth to achieve a concentration range of 4 – 200 µM using 2-fold serial dilutions. 50 μl of inoculum and 50 μl of peptoid solution were added to each test well (final concentration range of 2 – 100 µM). Experiments were performed in triplicate. A positive control for bacterial growth contained only the inoculum and Iso-sensitest broth. Other controls contained the inoculum and serial dilutions of ampicillin (from 250 µg/mL to 2 µg/mL), serial dilutions of DMSO and the inoculum to confirm no inhibitory effect on bacterial growth, and Iso-sensitest broth alone as a sterile control. […]
growth after incubation at 37 °C for 16 h with shaking. Quantitative data was attained from absorbance values using a Biotek Synergy H4 plate reader.

SMILES | Selectivity Index HaCaT, E. coli | Selectivity Index HepG2, E. coli | Average selectivity E. coli
NCCCCCCNCC(=O)N(CC(=O)N(CC(=O)N(CCCCCCN)CC(=O)N(CC(=O)N(CC(=O)N(CCCCCCN)CC(=O)N(CC(=O)N(CC(=O)N(CCCCCCN)CC(=O)N(CC(=O)N(CC(N)=O)Cc1ccccc1)Cc1ccccc1)Cc1ccccc1)Cc1ccccc1)Cc1ccccc1)Cc1ccccc1)Cc1ccccc1)Cc1ccccc1 [Peptoid 1, (NahNpheNphe)4] (H-[Gly(N-(CH2)6NH2)][Nphe][Nphe][Gly(N-(CH2)6NH2)][Nphe][Nphe][Gly(N-(CH2)6NH2)][Nphe][Nphe][Gly(N-(CH2)6NH2)][Nphe][Nphe]-NH2) | > 8 | > 8 | 
NCCCCCCNCC(=O)N(CC(=O)N(CC(=O)N(CCCCCCN)CC(=O)N(CC(=O)N(CC(=O)N(CCCCCCN)CC(=O)N(CC(=O)N(CC(N)=O)Cc1ccccc1)Cc1ccccc1)Cc1ccccc1)Cc1ccccc1)Cc1ccccc1)Cc1ccccc1 [Peptoid 2, (NahNpheNphe)3] (H-[Gly(N-(CH2)6NH2)][Nphe][Nphe][Gly(N-(CH2)6NH2)][Nphe][Nphe][Gly(N-(CH2)6NH2)][Nphe][Nphe]-NH2) | > 2 | > 2 | 
NCCCCNCC(=O)N(CC(=O)N(CC(=O)N(CCCCN)CC(=O)N(CC(=O)N(CC(=O)N(CCCCN)CC(=O)N(CC(=O)N(CC(=O)N(CCCCN)CC(=O)N(CC(=O)N(CC(N)=O)Cc1ccccc1)Cc1ccccc1)Cc1ccccc1)Cc1ccccc1)Cc1ccccc1)Cc1ccccc1)Cc1ccccc1)Cc1ccccc1 [Peptoid 4, (NLysNpheNphe)4] (H-[Nlys][Nphe][Nphe][Nlys][Nphe][Nphe][Nlys][Nphe][Nphe][Nlys][Nphe][Nphe]-NH2) | 3 | > 8 | 
NCCCCNCC(=O)N(CC(=O)N(CC(=O)N(CCCCN)CC(=O)N(CC(=O)N(CC(=O)N(CCCCN)CC(=O)N(CC(=O)N(CC(N)=O)Cc1ccccc1)Cc1ccccc1)Cc1ccccc1)Cc1ccccc1)Cc1ccccc1)Cc1ccccc1 [Peptoid 5, (NLysNpheNphe)3] | > 2 | > 2 | > 2
NCCNCC(=O)N(CC(=O)N(CC(=O)N(CCN)CC(=O)N(CC(=O)N(CC(=O)N(CCN)CC(=O)N(CC(=O)N(CC(=O)N(CCN)CC(=O)N(CC(=O)N(CC(N)=O)Cc1ccccc1)Cc1ccccc1)Cc1ccccc1)Cc1ccccc1)Cc1ccccc1)Cc1ccccc1)Cc1ccccc1)Cc1ccccc1 [Peptoid 7, (NaeNpheNphe)4] (H-[Gly(N-2-aminoethyl)][Nphe][Nphe][Gly(N-2-aminoethyl)][Nphe][Nphe][Gly(N-2-aminoethyl)][Nphe][Nphe][Gly(N-2-aminoethyl)][Nphe][Nphe]-NH2) | > 8 | > 8 | > 8
C[C@@H](c1ccccc1)N(CC(N)=O)C(=O)CN(C(=O)CN(CCCCCCN)C(=O)CN(C(=O)CN(C(=O)CN(CCCCCCN)C(=O)CN(C(=O)CN(C(=O)CNCCCCCCN)[C@@H](C)c1ccccc1)[C@@H](C)c1ccccc1)[C@@H](C)c1ccccc1)[C@@H](C)c1ccccc1)[C@@H](C)c1ccccc1 [Peptoid 11, (NahNspeNspe)3] (H-[Gly(N-(CH2)6NH2)][Nspe][Nspe][Gly(N-(CH2)6NH2)][Nspe][Nspe][Gly(N-(CH2)6NH2)][Nspe][Nspe]-NH2) | > 4 | > 4 | 
C[C@@H](c1ccccc1)N(CC(N)=O)C(=O)CN(C(=O)CN(CCCCN)C(=O)CN(C(=O)CN(C(=O)CN(CCCCN)C(=O)CN(C(=O)CN(C(=O)CNCCCCN)[C@@H](C)c1ccccc1)[C@@H](C)c1ccccc1)[C@@H](C)c1ccccc1)[C@@H](C)c1ccccc1)[C@@H](C)c1ccccc1 [Peptoid 14, (NLysNspeNspe)3] (H-[Nlys][Nspe][Nspe][Nlys][Nspe][Nspe][Nlys][Nspe][Nspe]-NH2) | > 8 | > 8 | > 8
